Laboratory results reported in patent publication EP4840868A1, “NOVEL DISACCHARIDE LINKER, PREPARATION METHOD THEREFOR AND USE THEREOF” (dated 2026).
The match of structure and compound is tentative.

Amino acid sequences for entries named in this document (tags omitted). Residues count along the entry.
UniProt T1WGN1, 38-843 limits assumed: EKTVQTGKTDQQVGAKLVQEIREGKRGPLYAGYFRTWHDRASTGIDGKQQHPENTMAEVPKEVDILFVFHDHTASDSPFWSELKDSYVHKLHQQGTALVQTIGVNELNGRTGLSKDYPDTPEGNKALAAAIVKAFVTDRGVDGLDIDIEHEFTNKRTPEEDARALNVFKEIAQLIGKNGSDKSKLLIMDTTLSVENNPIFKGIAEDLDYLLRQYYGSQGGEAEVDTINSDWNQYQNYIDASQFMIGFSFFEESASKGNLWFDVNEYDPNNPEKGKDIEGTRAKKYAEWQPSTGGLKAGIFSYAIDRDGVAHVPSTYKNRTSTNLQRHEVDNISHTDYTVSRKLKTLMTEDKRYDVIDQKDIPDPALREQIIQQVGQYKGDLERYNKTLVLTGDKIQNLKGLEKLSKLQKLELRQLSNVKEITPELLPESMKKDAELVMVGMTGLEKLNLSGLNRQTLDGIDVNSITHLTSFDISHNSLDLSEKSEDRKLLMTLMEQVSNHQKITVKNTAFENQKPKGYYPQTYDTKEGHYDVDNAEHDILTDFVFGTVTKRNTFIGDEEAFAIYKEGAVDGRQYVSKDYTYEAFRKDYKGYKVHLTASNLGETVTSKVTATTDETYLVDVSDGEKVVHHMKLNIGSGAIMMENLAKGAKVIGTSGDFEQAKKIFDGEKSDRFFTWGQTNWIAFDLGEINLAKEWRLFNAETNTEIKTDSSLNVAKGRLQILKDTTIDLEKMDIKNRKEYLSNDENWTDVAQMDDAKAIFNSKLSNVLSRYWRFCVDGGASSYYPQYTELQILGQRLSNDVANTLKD
UniProt Q99Y92, 37-995 limits assumed: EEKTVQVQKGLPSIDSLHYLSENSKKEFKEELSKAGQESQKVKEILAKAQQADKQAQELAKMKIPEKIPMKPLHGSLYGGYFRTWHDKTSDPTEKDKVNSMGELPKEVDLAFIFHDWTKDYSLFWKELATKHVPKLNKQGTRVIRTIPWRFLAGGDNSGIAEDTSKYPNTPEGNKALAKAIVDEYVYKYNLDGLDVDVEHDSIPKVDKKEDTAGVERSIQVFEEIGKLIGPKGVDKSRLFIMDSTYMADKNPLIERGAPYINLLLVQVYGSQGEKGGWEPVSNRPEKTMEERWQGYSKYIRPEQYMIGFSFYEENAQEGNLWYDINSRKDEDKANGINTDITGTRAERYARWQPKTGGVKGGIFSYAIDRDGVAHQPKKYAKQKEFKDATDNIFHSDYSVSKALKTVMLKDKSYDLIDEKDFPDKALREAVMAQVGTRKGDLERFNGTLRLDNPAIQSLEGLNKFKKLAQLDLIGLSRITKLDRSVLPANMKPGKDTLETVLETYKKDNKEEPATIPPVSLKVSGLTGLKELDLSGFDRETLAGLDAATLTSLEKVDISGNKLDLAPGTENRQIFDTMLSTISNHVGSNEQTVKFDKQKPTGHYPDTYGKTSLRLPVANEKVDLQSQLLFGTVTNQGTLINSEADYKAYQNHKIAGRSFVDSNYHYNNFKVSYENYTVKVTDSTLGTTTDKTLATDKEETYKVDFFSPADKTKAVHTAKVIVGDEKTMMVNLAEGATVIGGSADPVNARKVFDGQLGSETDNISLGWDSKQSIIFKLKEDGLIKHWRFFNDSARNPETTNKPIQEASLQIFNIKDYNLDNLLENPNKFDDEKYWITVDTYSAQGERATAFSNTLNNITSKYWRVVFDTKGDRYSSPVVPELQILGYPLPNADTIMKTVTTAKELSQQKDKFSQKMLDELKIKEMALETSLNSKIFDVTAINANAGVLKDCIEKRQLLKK

What was measured:
Assay in all cases: Substrate specificity: transglycosylation of disaccharide linkers onto wild-type pertuzumab, LC-MS
Endo S2 = Endo S2 (Streptococcus pyogenes serotype M49, UniProt T1WGN1); settings: Endo S2 0.4 mg/mL; wild-type pertuzumab 10 mg/mL; linker 1.67 mM; pH 7.4, 25°C; after 6 hours
Endo Se2 = Endo Se2 0.4 mg/mL; wild-type pertuzumab 10 mg/mL; linker 1.67 mM; pH 7.4, 25°C; after 6 hours
Endo Si = Endo Si 0.4 mg/mL; wild-type pertuzumab 10 mg/mL; linker 1.67 mM; pH 7.4, 25°C; after 6 hours
Endo S = Endo S (Streptococcus pyogenes serotype M1, UniProt Q99Y92); settings: Endo S 0.4 mg/mL; wild-type pertuzumab 10 mg/mL; linker 1.67 mM; pH 7.4, 25°C; after 6 hours

SMILES | Transglycosylation efficiency (%) (Endo S2) | Transglycosylation efficiency (%) (Endo Se2) | Transglycosylation efficiency (%) (Endo Si) | Transglycosylation efficiency (%) (Endo S)
Cc1nnc(-c2ccc(OCCOCCOCCOCCOCCOCCOCCOCCOCCC(=O)NC[C@H]3O[C@@H](O[C@H]4[C@H](O)[C@H]5N=C(CN=[N+]=[N-])O[C@H]5O[C@@H]4CO)[C@H](O)[C@@H](O)[C@H]3O)cc2)nn1 | 6.9 | 53.1 | 15.1 | 0
CCC1=N[C@H]2[C@@H](O1)O[C@H](CO)[C@@H](O[C@@H]1O[C@H](CNC(=O)CCCCCCCN[C@@H](CCCCNC(=O)Cc3ccc(-c4nnc(C)nn4)cc3)C(=O)NCCOCCOCCOCCOCCOCCOCCN=[N+]=[N-])[C@H](O)[C@H](O)[C@H]1O)[C@@H]2O | 52.9 | >95 | >95 | 11.7
